Test results published in the supplement of paper PMC3334620.
Whole data set: some 33,000 sequences, median “E-score (-0.5 to 0.5)” near -0.0034, cut for the highest 2% near 0.25. Some of the results follow.

Target: T1, Yap3 (UniProt P38749)
T1 sequence: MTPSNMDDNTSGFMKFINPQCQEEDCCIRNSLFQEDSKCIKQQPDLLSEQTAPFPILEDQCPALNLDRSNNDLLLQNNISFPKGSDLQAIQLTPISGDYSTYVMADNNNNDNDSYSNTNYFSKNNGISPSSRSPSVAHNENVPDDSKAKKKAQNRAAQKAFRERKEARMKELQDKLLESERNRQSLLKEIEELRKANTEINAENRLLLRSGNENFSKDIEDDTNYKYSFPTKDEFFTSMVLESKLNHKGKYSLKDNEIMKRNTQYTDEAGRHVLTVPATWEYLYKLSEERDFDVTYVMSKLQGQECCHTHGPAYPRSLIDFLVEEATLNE
Assay: PBM E-score (8-mer binding enrichment) (E-score (-0.5 to 0.5)); higher = stronger / more preferred TF binding
Settings: protein concentration: 100 nM; construct: GST-full length
Procedure, shortened: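 PURExpress in vitro transcription/translation supplied GST-tagged yeast transcription factors, either full-length or DNA-binding domain. Applied at about 100-200 nM to universal all-10-mer Agilent arrays double-stranded by primer extension, the bound protein was detected with fluorescent anti-GST. E-scores, modified Wilcoxon-Mann-Whitney statistics, were given by the Universal PBM Analysis Suite to ungapped eight-base words pooled with their reverse complements after masliner normalisation.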

Sequence	PBM E-score
GTTGAGCA	0.0274
GAAAGGAC	-0.0281
GCGGCAGA	-0.17
CGAAAGGC	-0.119
GACAGGCC	0.0143
CCCTACCA	-0.0549
TGGTCTAA	-0.063
CTACTGTA	-0.0229
AAAATTGA	0.194
AGTTTGCC	0.175
GCAGAGGA	-0.0322
CGTTCAAG	-0.0509
GGGCTGGA	-0.199
ACAGTGGC	0.0492
TACCTCGA	0.0149
CAGTAACG	-0.0558
AACACAGT	0.102
TCCCATAA	0.00173
AGGTGCTC	-0.335
CCACTTAA	-0.071
CCGCTTCC	-0.111
ACAGTTGC	0.042

As entered above.
Under PBM E-score, AAAATTGA has the entry 0.194
Under PBM E-score, ACAGTTGC has the entry 0.042
Under PBM E-score, GACAGGCC has the entry 0.0143
Under PBM E-score, AGGTGCTC has the entry -0.335

The list goes on:

Sequence	PBM E-score
ATTTACCA	0.0912
AGCCCCAC	-0.248
AAACTCGC	-0.0355
CATCTACG	-0.0208
AAGAGATC	-0.102
CCGGTGAA	-0.0053
TATGCCAA	0.0551
AGGTGGCA	-0.0434
CGGAGCTA	-0.142
ATAAATCA	0.207
AGTGGAGC	-0.0528
GCGCCGAC	-0.208
CCCTGCAC	-0.185
GCATTAGA	0.0147
CTACGGAA	0.068
AACTTGAC	0.107
GGATACCA	0.0865
GAGAGTAC	-0.0939
GATACCGA	-0.128
AAAGCCTC	-0.124
AGGGAGTC	-0.235
AAGGTCGT	0.0935

Sequence	PBM E-score
ACTTACTG	0.0976
CCGTAGCC	-0.146
ACCGACCG	-0.0309
AGTTCTAC	-0.229
CAATTGAC	0.084
CTCGAACA	-0.0158
CCATTGCA	0.0659
GAGACTCA	-0.04
ATTTGGCA	-0.0234
CCACCGCC	-0.193
GGCAACCA	-0.0656
AGATGAAG	-0.181
GCCTGTTA	-0.0396
AGGGGCTG	-0.0704
ATTTCTTC	0.106
ACTCATGG	-0.0507
CTCCACAC	-0.00615
ATGGTTAG	0.0841
GCAAATCC	0.156
AGCATCCA	-0.103
CGGTAATC	-0.0393
CTATCCTA	-0.0511

Sequence	PBM E-score
GCCGCCAC	-0.286
GGGGAGCA	-0.3
CTGCAAAG	-0.0978
AACCGGAG	-0.134
CCAGTTAG	0.0535
CTGCCCAG	-0.453
CTGCTTAA	-0.0735
CGGCAACG	-0.19
GGCTAGAC	-0.225
CAGCTAAG	-0.233
ACAACGTG	-0.0198
CTGAAGTA	-0.047
AGCGACAA	0.0277
AAGGTTTG	0.0653
GTTTGGCA	-0.136
CTTCTGCC	-0.0432
AAGCTTGT	0.0865
CGAGCTTA	0.00548
CCTGATCC	-0.117
GCCGTCAA	-0.057
